This assay can be described thus: qHTS Assay to Find Inhibitors of Chronic Active B-Cell Receptor Signaling. Conditions: ABC-DLBCL IkBa-CBG/CBR reporter, luminescence ratio (green luciferase fused to IkBa over red control in TMD8 lymphoma cells), 4 h. Summed up:
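Doxycycline induced both beetle luciferases in TMD8 lymphoma cells; IKK-driven degradation limits the IkappaBalpha-fused green signal, while red luminescence normalises for cell number and nonspecific effects. Compounds tested up to 46 uM, 4 hrs.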
(In general: qHTS replaces the single test concentration by a dilution series.)

[1] abbreviates: measured here: IkBa-CBG green luminescence.
Where [2] appears, read: measured here: CBR red luminescence, cell number.

The other results are listed elsewhere or left out. The main result of the screen is listed elsewhere. These columns were measured beside it and carry no call. Most of these compounds were active or inconclusive in the main read-out, so they are no random draw. Words in brackets tell the shape of the fitted curve; partial curves, single points and poor fits give uncertain potencies.

`CCOc1ccc2nc(NC(=O)CSc3cn[nH]n3)sc2c1`: under setting [1], the AC50 was 12.6 µM [falling, partial curve, poor fit]. As for `O=C(CN1C(=O)CSc2ccccc21)Nc1ccc2c(c1)OCCO2`, the AC50 under setting [2] was 0.0411 µM [falling, full curve, poor fit].

Take `C=CCOc1ccc2ccccc2c1/C=N/O`: under setting [2], the AC50 was 4.11 µM [rising, full curve, poor fit]. Same read-out and setting: the result for `Cc1ccc(C(=O)NC(=S)Nc2ccc(-c3cc4ccccc4oc3=O)cc2)c(C)c1` reads 0.00461 µM [rising, full curve, poor fit]; that for `Fc1ccc(-c2ccc(Nc3cccc(F)c3)nn2)cc1`, 7.94 µM [falling, partial curve, poor fit]. Turning to `CCN(CC(=O)NCc1cccs1)C(=O)c1ccc(-c2ccccc2F)o1`, the AC50 under setting [2] was 6.51 µM [rising, single point].

Take `Cc1noc(C)c1S(=O)(=O)Nc1ccc(C(=O)Nc2ccc(OC(F)(F)F)cc2)cc1`: under setting [2], the AC50 is 0.891 µM [falling, full curve, poor fit].

Consider `CCCCNC(=O)c1ccc2c(OCC)n(CCCC)nc2c1`, for which the AC50 under setting [2] is 4.47 µM [rising, partial curve, poor fit].

`CCC(=O)Nc1cccc(-c2nnc(SCC(=O)c3ccccc3)n2C)c1`: the AC50 under setting [2] was 11.2 µM [falling, single point] and the AC50 under setting [1] was 31.6 µM [falling, partial curve, poor fit]. `Cc1nc2nc(COc3ccccc3)[nH]n2c(=O)c1Cc1ccccc1`: under setting [2], the AC50 is 1.84 µM [falling, full curve].

Regarding `Cc1ccc(NCc2ccc(O)c3ncccc23)cc1`, the AC50 under setting [2] was 11.2 µM [falling, partial curve, poor fit]. On to `N#Cc1ccccc1OCC(=O)NC(=O)NCc1ccco1`, for which the AC50 under setting [2] is 0.794 µM [falling, full curve, poor fit].

`COc1cc(/C=C/C(=O)OCC(=O)NCc2ccccc2OC)ccc1O`: under setting [2], the AC50 is 16.4 µM [falling, single point]. The same measure, in the same setting: the same measure for `CC1Oc2ccccc2N(CC(=O)Nc2ccc3c(c2)OCCO3)C1=O` (stereo unspecified): 3.55 µM [rising, single point]; for `COc1ccc(C(=O)c2ccc(Br)cc2)cc1`: 0.398 µM [rising, full curve, poor fit]; for `Cc1ccc(S(=O)(=O)N2[C@@H](c3ccc(C(C)(C)C)cc3)C(C(=O)O)=CC[C@H]2c2ccc(Cl)cc2)cc1`: 1.3 µM [rising, full curve]. As to `CN(CCNC(=O)C1CCC(=O)N(Cc2ccc(Cl)cc2)C1)CCc1ccccc1` (stereo unspecified), the AC50 under setting [2] was 10 µM [falling, partial curve].

For `COc1cc2cc(-c3ccc(O)cc3O)nc(C)c2cc1OC`, the AC50 was 3.16 µM [rising, single point] under setting [2] and 3.55 µM [falling, single point] under setting [1]. On to `Cc1ccc(Cl)cc1NC(=O)CN1CCN(S(=O)(=O)N2CCOCC2)CC1`, for which the AC50 under setting [2] is 4.47 µM [rising, single point]. Same read-out and setting: the result for `Cc1cc(C)c2nc(SCC#N)cc(C)c2c1` reads 35.5 µM [rising, single point]; that for `CC1CC(=O)NN=C1c1ccc(N(C)C)c([N+](=O)[O-])c1` (stereo unspecified), 4.11 µM [rising, full curve, poor fit]; that for `COc1ccccc1-n1cnc2cc(C(=O)NCc3ccco3)ccc21`, 13 µM [falling, partial curve]. Take `CCN(CC)c1ccc2c(-c3ccc(S(=O)(=O)O)cc3S(=O)(=O)[O-])c3ccc(=[N+](CC)CC)cc-3oc2c1`: under setting [1], the AC50 is 15.8 µM [rising, partial curve, poor fit].

Regarding `Cc1occc1C(=O)Nc1cccc(C(=O)O)c1`, under setting [2], the AC50 is 32.6 µM [falling, single point]. The same measure, in the same setting: the same measure for `O=C(Nc1ccccc1Cl)c1csc(-c2cccnc2)n1`: 35.5 µM [falling, single point]; for `COc1ccccc1-n1c(-c2ccc(NS(C)(=O)=O)cc2)n[nH]c1=S`: 0.058 µM [falling, full curve, poor fit].

For `CCCOc1ccccc1C1NC(=O)NC(C)=C1C(=O)OCc1ccccc1` (stereo unspecified), under setting [2], the AC50 is 4.11 µM [falling, single point]. Same read-out and setting: the result for `Cc1ccccc1C(=O)NC(=S)Nc1ccccc1C(=O)O` reads 10 µM [falling, partial curve]; that for `O=C(O)c1cccnc1NC1CCCC1`, 32.6 µM [rising, single point]; that for `COc1ccc(N=Cc2nc(-c3ccco3)oc2O)cc1`, 2.06 µM [falling, full curve, poor fit].

For `CSc1nc(C=Nc2ccccc2Cl)c(O)n1Cc1cccc(Cl)c1`, the AC50 under setting [2] is 2.82 µM [falling, partial curve, poor fit]. Same read-out and setting: the result for `COCC1CCCCN1C(=O)C1CCN(c2nc(-c3ccccc3)nc3c2CCC3)CC1` (stereo unspecified) reads 11.2 µM [falling, single point]; that for `Nc1c(C(=O)NCc2ccco2)nnn1CC(=O)Nc1ccc2c(c1)OCO2`, 14.1 µM [falling, partial curve, poor fit]. The same measure, in the same setting: the result for `NC(=O)c1sc2cc(C(F)(F)F)cnc2c1-c1ccccc1` reads 5.62 µM [rising, single point]; that for `COCCn1c(SCC(=O)/C=C2\N(C)c3ccccc3C2(C)C)nnc1-c1ccncc1`, 10.3 µM [falling, partial curve, poor fit]. The same measure, in the same setting: the result for `O=C(/C=C/c1cccc([N+](=O)[O-])c1)N1CCN(C(=O)c2ccco2)CC1` reads 20.6 µM [rising, partial curve, poor fit]; that for `Cc1ccccc1C(=O)NNC(=O)CSc1nc2ccccc2c(=O)[nH]1`, 11.2 µM [falling, partial curve]. As for `O=C(CN1C(=O)C2CC=CCC2C1=O)OCC(=O)c1ccc(Cl)c([N+](=O)[O-])c1` (stereo unspecified), the AC50 under setting [2] is 25.1 µM [falling, single point].

As for `O=C(NC(=S)Nc1ccccc1N1CCCCC1)c1ccc(F)cc1`, the AC50 under setting [2] is 15.8 µM [rising, single point]. For the compound `O=C(Cc1ccccc1)Nc1ccc2[nH]ncc2c1`, the AC50 under setting [2] was 22.4 µM [falling, partial curve, poor fit]. The same measure, in the same setting: the result for `c1cc(CNc2ccc3c(c2)OCO3)ccn1` reads 0.411 µM [rising, full curve, poor fit]; that for `C=CCc1cc(/C=C2/NC(=O)N(CC(=O)OC)C2=O)cc(OC)c1O`, 10 µM [falling, partial curve, poor fit]; that for `O=C(c1csc2c1CCCC2)N1CCN(c2ncccn2)CC1`, 3.66 µM [rising, partial curve, poor fit].

Take `COC(=O)c1ccccc1NC(=O)c1ccc(-c2ccccc2F)o1`: the AC50 under setting [2] was 0.058 µM [falling, full curve].

Turning to `CC(C)c1cc(C(=O)NCCc2ccccc2)no1`, the AC50 under setting [2] was 2.24 µM [falling, full curve].

For `c1ccc2c(c1)OCCc1c-2[nH]c2ccccc12`, the AC50 under setting [2] was 3.55 µM [rising, partial curve, poor fit]. For the compound `COc1ccc(N2C(=O)CSC2c2cccc(OC)c2OC)cc1` (stereo unspecified), under setting [2], the AC50 was 16.4 µM [rising, partial curve, poor fit]. On the same count and under the same terms, the result for `N#C/C(=C\c1ccccc1[N+](=O)[O-])C(=O)NC1CCCCC1` reads 20 µM [falling, partial curve, poor fit]; that for `CC(=O)Oc1ccc2nc(-c3ccc(Br)o3)oc(=O)c2c1`, 0.355 µM [falling, full curve, poor fit]; that for `CCc1c(C)nc(SCC(=O)Nc2ccc3c(c2)OCCO3)[nH]c1=O`, 20 µM [falling, single point].

With `CCN(C[C@H]1N[C@@](Cc2ccccc2)(C(=O)OC)[C@H]2C(=O)N(C)C(=O)[C@@H]12)C(=O)Nc1ccc(Cl)cc1`, the AC50 under setting [2] is 29.1 µM [rising, single point]. The same measure, in the same setting: the same measure for `c1ccc2c(c1)[nH]c1nc(SCCN3CCOCC3)nnc12`: 29.1 µM [falling, single point]; for `CCOC(=O)c1c(NC(=O)CS(=O)(=O)c2cn(CC)c3ccccc23)sc2c1CCCCC2`: 11.6 µM [rising, partial curve, poor fit]; for `CCOC(=O)c1sc(-c2cccc(C(F)(F)F)c2)nc1O`: 0.794 µM [rising, full curve, poor fit].

As to `COc1ccc(Nc2nc(C(=O)NCc3ccco3)cs2)cc1`, the AC50 under setting [2] is 11.2 µM [falling, partial curve]. Same read-out and setting: the result for `O=C(CN1C(=O)COc2ccccc21)Nc1ccccc1F` reads 3.98 µM [falling, partial curve, poor fit]; that for `S=c1[nH]nc(-c2cccs2)n1Cc1ccccc1`, 35.5 µM [rising, single point]; that for `COc1cccc(NCc2cc3c(C(C)(C)C)nn(-c4ccccc4)c3[nH]c2=O)c1`, 29.1 µM [falling, single point]. The same measure, in the same setting: the result for `CC(NC(=O)/C(C#N)=C/c1cccs1)c1ccccc1` (stereo unspecified) reads 1.58 µM [rising, partial curve, poor fit]; that for `CCCN1CCN(CCCNC(=O)c2ccc3nc(N4CCC(C)CC4)sc3c2)CC1`, 0.398 µM [falling, partial curve, poor fit]. Still for that read-out and setting: the result for `Cc1cc(NC(=O)CSc2nc3ccsc3c(=O)n2NC(=O)c2ccccc2)no1` reads 0.58 µM [rising, full curve, poor fit]; that for `CC1CCC(C(C)C)C(OC(=O)COC(=O)c2cccn2C)C1` (stereo unspecified), 6.31 µM [rising, full curve]. Regarding `O=C(CCl)Nc1ccc(Sc2ccc(NC(=O)CCl)cc2)cc1`, the AC50 under setting [2] is 35.5 µM [falling, single point].

With `COc1ccc(NC(=O)CC2CC3CCC2C3)cc1S(=O)(=O)N1CCOCC1` (stereo unspecified), the AC50 under setting [2] is 25.9 µM [rising, single point].

Broadly, the AC50 is the midpoint of the concentration-response curve, whichever way the signal moves.

(Values after PubChem BioAssay AID493014 (National Center for Advancing Translational Sciences (NCATS), 2011).)
